Laboratory results published in PubChem BioAssay AID1347423 (Functional Genomics Laboratory (NCATS/FGL), 2020).
About 210 (0.4%) of roughly 52,000 sequences were called active.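 The calls were made as follows: active = gene whose silencing raises cell survival under the drug, median off-target-corrected z-score across its silencing RNAs 2 or more; inactive = the rest.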 Some of the results follow.

assay: Resistance to Poly (ADP-Ribose) Polymerase inhibitor: Gene Identification via Genome-wide siRNA Screen; settings: mouse BRCA2 R2336H ES cells, olaparib, CellTiter-Glo viability; hits give high values
How it was run: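 Mouse BRCA2 R2336H ES cells were reverse-transfected with siRNA (20 nM final), treated at 48 h with 500 nM olaparib, and read by CellTiter-Glo after 72 h. Scores: MAD-based z per siRNA, median per gene, seed off-target correction.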

Sequence	z-score
CGAAAGAUGGUGAGUCGGUTT against Ppp1r10	inactive: -1.89
GGCAAUAACAGGAAAUCAATT against Pkp1	inactive: 4.47
GGAUGAACUAUACCAUGGCTT against 4632425D07Rik	inactive: -0.622
GGACUUAUGUUGAAAACAGTT against Mapk8	inactive: 0.192
AUGAAUUUCUACUCGCCACTT against MGC91195	inactive: 1.82
GGUUGAACAACUCUCUGCUTT against Hrh2	inactive: 0.51
GAAGGUUCCUCUGUAAAAATT against Defb13	inactive: -0.806
GGAAAACAAACUGCACUUCTT against Sdf4	inactive: -0.914
CCUAGUGUGUUAAUUGUAATT against C130057E09Rik	inactive: 1.17
GGUGCAUGCCAUUGAGUUUTT against Trim23	inactive: 1.15
GGACCAGGAUGAGAAGAUUTT against Trim42	inactive: -0.916
GGUUAAAGUUAAAUCUGUCTT against C6	inactive: -0.317
GGACAUCAGUUGUCCUAGCTT against Tmem16f	inactive: -0.0974
GCUGUUCCGUAGCCAGAGUTT against Homer3	inactive: -0.747
CCUAUGAAUGUGUUAAAGATT against BC010311	inactive: -0.307
GCCCUUGUUAGGUCUUGUCTT against Stard8	inactive: -0.854
GGAAUCGCUACCCUGACAUTT against Pitx3	inactive: 0.356
GCAGGCCAGAGUAGUCAUGTT against 4930572J05Rik	inactive: 0.795
GGAUGAAAAAGUUAAGAAGTT against Lmod1	inactive: 0.517
GGCUGUUGUGUUAUUUGUUTT against Tusc2	inactive: -0.0342
GGACACAGAUUAAUCAAGATT against B230118H07Rik	inactive: 1.17
GGGACCUAUGCUGUUUCCUTT against E030025D05Rik	inactive: -0.622
GGUCUUAAAAGAGAAGCCATT against 1300002A08Rik	inactive: -1.57

Sequence	z-score
CCUGGAUGCAGGUUAAGCUTT against Dppa5	inactive: 0.3
GGCAGAAGAAGAGUUCAACTT against Atp6v1e1	inactive: 0.651
GCUACCUAAGUUGAAAAAGTT against Anp32b	inactive: -0.323
GGUGAUUCAUGUGAACUCATT against Zfp27	inactive: 0.494
GCUUCUAACUCUGUGAGGGTT against 0610030I09Rik	inactive: 1.02
GGCAUAGCCACUAAAAAAATT against Muc2	inactive: -0.443
GGAUUAAAGAAAGACAUUGTT against Yme1l1	inactive: -0.767
GGAAGAGGAAAUCACCACATT against Scgf	inactive: 1.53
GCAGAUUACUUCCAUCAGUTT against Rps20	inactive: -3.06
GCUACAGGAUUUAUACAUGTT against Dhx29	inactive: 0.164
GGAAGACUUGUUUGACAUUTT against Stk11	inactive: -0.207
GGCUAAAUCUAGCUACUAATT against Lair1	inactive: 1.05
CCCUUGAAGAUGAAACCAGTT against Smarca5	inactive: -1.47
GGGUAUGCAUGAGCUACUATT against Tbc1d5	inactive: -2.19
GGAUCCAGUAACCAUCAUGTT against Arhgap22	inactive: -1.3
CGGUUGAACCGGCCUCUUATT against Aco2	inactive: -0.268
GGUGCAAACGUAAACAUGATT against Asb4	inactive: -0.0354
CCUACAAAGUGGAUGUAAUTT against Fgfrl1	inactive: -0.233
GGUCAAUGGAGUUAGAAUATT against Atrn	inactive: -0.0734
GCCGCUUAUUCACAGAUGUTT against 4930429H24Rik	inactive: -0.868
GGAUAGAACUCUAAGCCGUTT against Nkx2-2	inactive: 2.61
GGAGAGGUCAGAUAGAAAUTT against 9830132G07Rik	inactive: -2.99
GGACAUUCAGAAACAGAAGTT against Zfp451	inactive: 1.19

Exported bar-delimited: entries from further up
Sequence | z-score
GGGACCUAUGCUGUUUCCUTT against E030025D05Rik | inactive: -0.622
GGUCUUAAAAGAGAAGCCATT against 1300002A08Rik | inactive: -1.57
CCUGGAUGCAGGUUAAGCUTT against Dppa5 | inactive: 0.3
GGCAGAAGAAGAGUUCAACTT against Atp6v1e1 | inactive: 0.651

(further entries)

Sequence	z-score
GGAAAUGACAAGUAUGAAGTT against Gria4	inactive: 0.136
GGAAGAUGGGCUAUUUCAUTT against Gabra6	inactive: -0.851
GGAGUUGGAUAUUAUCUAUTT against Drg1	inactive: 0.258
UCUGCUCAACAUCGUCAAUTT against Sstr3	inactive: 0.217
GGAAUCAAUGUCUCAGCCATT against Fscn2	inactive: -1.73
GGAGGAAGAACUGUCUUUGTT against Wasf1	inactive: -1.51
GCCUCAAAAGACAAGGUGUTT against BC006909	inactive: 0.218
CGUUACUAUUUGAUCCACCTT against Nrp2	inactive: 0.648
GGAGGAAUCAUAUAAUCUCTT against Adpn	inactive: 0.0401
GGAUACAGUCAAAUUACUUTT against Usp9y	inactive: 1.97
GGUGGUAAUUGGCUACUUUTT against Slc31a2	inactive: 1.93
CGGAUAUGAGAUGAGAAUGTT against BC023055	inactive: -0.639
CCAGCUAUGUGUAUAAACCTT against Ppid	inactive: 1.14
GGUAGCACUUUGUAUUUUATT against Spg7	inactive: -0.946
GGUUGCUCUUAAGAUCAAUTT against Crx	inactive: 1.22
CGAGAGAACUCUCACCUAUTT against 4933414G08	inactive: -0.138
GGCAGAAGGUCUAUGAUUGTT against Zfp637	inactive: 1.59
GCUAGAGGUAUCAUGCUGATT against B4galt6	inactive: -0.244
GGGAUUUGUAUGAUGAUAATT against Sf3a3	inactive: -2.46
ACUUCACCAUGGUACCCGGTT against Bzrp	inactive: -0.182
GGAGUGAGUCCUGAAGCAATT against Ifna12	inactive: -1.69
